The whole screen tested about 2,400 compounds, of which about 20 (0.8%) were called active.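 Rule for the calls: active = AC50 no more than ten times the highest tested concentration, or full inhibition at every dose giving a flat fit (cut at about 30 µM in these data); inconclusive = flat fit with activity between 30% and 70%, or poor-quality invalid fit; inactive = AC50 more than ten times the top tested dose.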 Some of the results follow.

A short description of the experiment: inhibitors of ADP-Glo detection reagents, dose response, artefact control for GSK-3a inhibitor project, biochemical, luminescence, cell-free, homogeneous (AID 463205).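 Note: kinase-free counter-screen against the ADP-Glo detection reagents only; potency is for inhibitors that reduce the luminescence signal.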 The settings on record: 5 uM ADP. (In ADP-Glo the light output rises with the ADP produced.)
Broadly, the AC50 is the concentration at which the activity in the assay is half-maximal. With `COc1cc2[nH]c3c(Cl)ncnc3c2cc1OC`, the AC50 was inactive: > 30 µM. Regarding `COC1OC(COC(=O)c2ccccc2)C(OC(=O)c2ccccc2)C1OC(=O)c1ccccc1` (stereo unspecified), the AC50 is inactive: > 30 µM. `CCC(Oc1ccccc1)C(=O)Nc1ncc([N+](=O)[O-])s1` (stereo unspecified): the AC50 is inactive: > 30 µM. Regarding `Cc1nc(N2CCOCC2)nc(N2CCCCC2)c1[N+](=O)[O-]`, the AC50 is inactive: > 30 µM.

Consider `COc1c(/C=C2\SC(=Nc3ccccc3Cl)NC2=O)cccc1[N+](=O)[O-]`, for which the AC50 is inactive: > 30 µM. `COc1ccc(-n2c(Cc3cccn3C)nnc2SCC(=O)Nc2ccc(F)cc2)cc1`: the AC50 was inactive: > 30 µM.

For `CCOC(=O)CCc1c(C)c2ccc(O)cc2oc1=O`, the AC50 is inactive: > 30 µM. `NCCNc1ccc([N+](=O)[O-])c(NC2CC2)c1`: the AC50 is inactive: > 30 µM. For the compound `COc1cc(-c2nnc(SCc3c(F)cccc3Cl)o2)cc(OC)c1OC`, the AC50 is inactive: > 30 µM.

Turning to `c1cncc(-c2nc(NCC3COc4ccccc4O3)c3ccccc3n2)c1` (stereo unspecified), the AC50 is inactive: > 30 µM. In the case of `Cc1cccc(NC(=O)c2sc3nc4c(c(-c5cccs5)c3c2N)CN(C)CC4)c1`, the AC50 was inactive: > 30 µM. As to `Cc1c(Nc2ncccc2C(=O)O)cccc1C(F)(F)F`, the AC50 is inactive: > 30 µM.

Regarding `COC(=O)[C@H](C)NC(=O)NCc1ccccc1F`, the AC50 is inactive: > 30 µM. As for `CCN(CC)S(=O)(=O)c1ccc2oc(C(=O)N3CCOCC3)c(C)c2c1`, the AC50 is inactive: > 30 µM. Regarding `Fc1ccc(-c2nnc3ccc(N4CCCC4)nn23)cc1`, the AC50 was inactive: > 30 µM. Consider `Cc1cccc(C)c1OC(=O)C(c1ccccc1)c1ccccc1`, for which the AC50 was inactive: > 30 µM. On to `O=C(COc1cccc2cccnc12)N/N=C/c1ccccc1O`, for which the AC50 was inactive: > 30 µM.

Consider `COc1ccc(/C=C2\Oc3cc(OCC(=O)N4CC(O)C[C@H]4C(=O)O)ccc3C2=O)cc1OC` (stereo partly specified), for which the AC50 was inactive: > 30 µM.

Consider `CCCOc1ccc(-c2nnc(N)s2)cc1`, for which the AC50 is inactive: > 30 µM. Turning to `COc1ccc2nc(NC(=O)CSc3nc4ccccc4o3)sc2c1`, the AC50 was inactive: > 30 µM. On to `c1nc(NC2CCCCCC2)c2[nH]cnc2n1`, for which the AC50 is inactive: > 30 µM.

As for `CC(=O)Nc1ccc(-c2csc(NCc3ccccc3)n2)cc1`, the AC50 is inactive: > 30 µM. For the compound `N#CC1=C(SCC(=O)c2ccccc2)NC2=C(C(=O)CCC2)C1c1ccco1` (stereo unspecified), the AC50 was inactive: > 30 µM. Turning to `Nc1nonc1-n1nnc(C(=O)N/N=C/c2ccco2)c1CSc1ccccc1`, the AC50 was inactive: > 30 µM. Consider `c1ccc(N2CCN(c3cnc4ccccc4n3)CC2)cc1`, for which the AC50 was inactive: > 30 µM.

For `Nc1nc(N)nc(-c2cc([N+](=O)[O-])ccc2O)n1`, the AC50 was inactive: > 30 µM.

As to `Cc1cccc(N(C)C(=O)C2CCCN2S(=O)(=O)c2cccc3nsnc23)c1` (stereo unspecified), the AC50 is inactive: > 30 µM. In the case of `Cc1cnn(-c2cc(N/N=C/c3ccc(F)cc3)ncn2)c1`, the AC50 was inactive: > 30 µM. Turning to `CCCC1=C(C(=O)OCC)C(c2cccnc2)n2nc(C)nc2N1` (stereo unspecified), the AC50 was inactive: > 30 µM. The figure for `Nc1nc(N)nc(-c2ccccc2O)n1` is inactive: > 30 µM. The figure for `C[C@H](CO)N1C[C@H](C)[C@@H](CN(C)S(=O)(=O)c2ccccc2)Oc2c(NC(=O)c3ccncc3)cccc2C1=O` is inactive: > 30 µM. With `CCOC(=O)c1cc(-c2ccc(F)cc2)n(CC(=O)NC(C)CC)c1C` (stereo unspecified), the AC50 is inactive: > 30 µM. On to `CC(C)CC(O)C1CCN(C(=O)CCc2nnc(-c3ccc4c(c3)OCO4)o2)CC1` (stereo unspecified), for which the AC50 was inactive: > 30 µM.

As for `CCOC(=O)c1nnn(-c2nonc2OC)c1-c1ccccc1`, the AC50 is inactive: > 30 µM. The value for `COc1ccc2nc(NC(=O)CN3C(=O)NC4(CCCC4)C3=O)sc2c1` was inactive: > 30 µM. With `Cc1ccccc1CNC(=O)c1cc(COc2ccc(F)cc2F)on1`, the AC50 was inactive: > 30 µM. With `N#CC1=C2SCN(Cc3ccco3)CN2C(=O)CC1c1c(F)cccc1Cl` (stereo unspecified), the AC50 is inactive: > 30 µM.

In the case of `CC(C)COc1ncnc2c1sc1nc3c(cc12)COC(C)(C)C3`, the AC50 was inactive: > 30 µM. Regarding `Cc1nnc(NC(=O)c2cccc(S(=O)(=O)N3CC(c4ccccc4)CC3=O)c2)s1` (stereo unspecified), the AC50 was inactive: > 30 µM. Consider `O=C(NCCCN1CCN(CCCNC(=O)c2ccc3c(c2)OCO3)CC1)c1ccc2c(c1)OCO2`, for which the AC50 is inactive: > 30 µM. As for `N#Cc1c(-c2ccccc2Cl)c2c([nH]c1=O)-c1ccccc1OC2`, the AC50 is inactive: > 30 µM.

As to `Fc1cccc(/C=N/Nc2cc(N3CCOCC3)ncn2)c1`, the AC50 is inactive: > 30 µM.

Consider `CCCC(=O)NC(=S)Nc1sc2c(c1C(N)=O)CCC2`, for which the AC50 is inactive: > 30 µM. In the case of `Nc1n[nH]c2cc(=O)n(-c3ccc(Cl)cc3)nc12`, the AC50 is inactive: > 30 µM. As to `O=C(NC1CCCC1)c1ccc(Cn2c(=O)[nH]c3ccsc3c2=O)cc1`, the AC50 was inactive: > 30 µM.

As to `COc1ccc(S(=O)(=O)NC(C)C(=O)O)cc1` (stereo unspecified), the AC50 was inactive: > 30 µM.

In the case of `Cc1nc2c(c3c1[nH]c1ccccc13)C(=O)CC(C)(C)C2`, the AC50 is inactive: > 30 µM.

For `O=C(NC(=S)Nc1cccc2c(O)cccc12)c1ccccc1[N+](=O)[O-]`, the AC50 is inactive: > 30 µM. The figure for `COc1ccccc1NC(=O)CSc1ccc2nnc(-c3ccc(C)cc3)n2n1` is inactive: > 30 µM. With `CS(=O)(=O)N1CCN(c2ccc(NC(=O)c3ccc(Br)o3)cc2)CC1`, the AC50 is inactive: > 30 µM. `Cn1cnnc1SCC(=O)Nc1ncc([N+](=O)[O-])s1`: the AC50 is inactive: > 30 µM. `N#CCCN(Cc1ccccc1)S(=O)(=O)c1cccs1`: the AC50 was inactive: > 30 µM.

Regarding `NC(=O)c1ccsc1NC(=O)C1CCCCC1`, the AC50 is inactive: > 30 µM. For `Cc1nc(S/C(=C/c2ccc(-c3ccc(C(=O)O)cc3)o2)C(=O)O)n[nH]1`, the AC50 is inactive: > 30 µM. `CC(=O)N1CCN(c2ccccc2NC(=O)c2ccc(Br)o2)CC1`: the AC50 is inactive: > 30 µM. The value for `COc1ccc(NC(=O)Nc2ccc(F)cc2F)c(C)c1` was inactive: > 30 µM. Take `O=C1/C(=C/c2ccc3c(c2)OCO3)Oc2cc(OCC(=O)N3CC(O)C[C@H]3C(=O)O)ccc21` (stereo partly specified): the AC50 was inactive: > 30 µM. As for `Nc1ccccc1-c1nc2ccccc2[nH]1`, the AC50 was inactive: > 30 µM. The figure for `O=C(CSc1ccc2nnc(-c3ccccn3)n2n1)N1CCN(c2ccccc2)CC1` is inactive: > 30 µM. With `Cc1cccc(NC(=O)CSc2nc3[nH]ncc3c(=O)n2-c2ccccc2)c1`, the AC50 was inactive: > 30 µM. With `COCCCNc1nc2nonc2nc1N1C[C@H]2CC[C@H]1C2`, the AC50 is inactive: > 30 µM. Turning to `CC1(C)CC(=O)c2cnc(NCC3CCCO3)nc2C1` (stereo unspecified), the AC50 was inactive: > 30 µM. The figure for `CC(=O)Nc1cccc(-c2csc(Nc3ccccn3)n2)c1` is inactive: > 30 µM; for `CCCN(CCC)Cc1c(C(=O)N/N=C/C(C)=C\c2ccco2)nnn1-c1nonc1N` it is inactive: > 30 µM. Take `N#CC1=C2SCN(c3ccccc3)CN2C(=O)CC1c1ccccc1Cl` (stereo unspecified): the AC50 is inactive: > 30 µM.

Regarding `COc1ccc(OC)c(N=c2oc3c(OC)cccc3cc2C(=O)NCc2ccco2)c1`, the AC50 is inactive: > 30 µM. With `COc1ccc(OC)c(C2CC(=O)N3CN(c4ccccc4)CSC3=C2C#N)c1` (stereo unspecified), the AC50 is inactive: > 30 µM. For the compound `CCOC(=O)c1sc(NC(=O)CN2C(=O)NC3(CCC(C)CC3)C2=O)c(C(=O)OCC)c1C` (stereo unspecified), the AC50 is inactive: > 30 µM. For `N#Cc1c(N)n(CCNC(=O)c2cccs2)c2nc3ccccc3nc12`, the AC50 is inactive: > 30 µM.

Turning to `CCOC(=O)c1cc(CC)sc1NC(=O)CN1CCN(C(=O)c2ccco2)CC1`, the AC50 was inactive: > 30 µM. `Brc1ccccc1/C=N/Nc1ccc2ccccc2n1`: the AC50 was inactive: > 30 µM.

`COC(=O)c1ccccc1N=Nc1c(N)[nH][nH]c1=O`: the AC50 is inactive: > 30 µM. On to `COc1ccc(C2C3(C#N)C(N)=NC(OC)(OC)C23C#N)cc1` (stereo unspecified), for which the AC50 was inactive: > 30 µM. The value for `Cc1ccc(C2C3=C(CCCC3=O)Nc3c2c(C)nn3-c2ccccn2)o1` (stereo unspecified) was inactive: > 30 µM; that for `COc1cccc(-n2c(SCC(N)=O)nnc2-c2ccco2)c1` was inactive: > 30 µM. In the case of `O=C(COC(=O)c1cc(=O)[nH]c2ccccc12)Nc1ccc(Cl)cn1`, the AC50 was inactive: > 30 µM.

For the compound `CN(C)S(=O)(=O)N1CCN(c2ccnc3cc(Cl)ccc23)CC1`, the AC50 is inactive: > 30 µM. The figure for `CN(Cc1c(C(=O)N/N=C/c2ccccc2)nnn1-c1nonc1N)C1CCCCC1` is inactive: > 30 µM; for `O=c1cc(-c2ccccc2Cl)oc2c(NS(=O)(=O)c3cc(Cl)cc(Cl)c3O)ccc(O)c12` it is inactive: > 30 µM. For the compound `Cc1cc(/C=N/Nc2ccc([N+](=O)[O-])cn2)c(C)n1-c1cccc(C(=O)O)c1`, the AC50 was inactive: > 30 µM. Turning to `Fc1ccc(Nc2nc(-c3ccncc3)nc3ccccc23)cc1F`, the AC50 was inactive: > 30 µM.

Consider `CCc1nnc(NC(=O)c2cccc(S(=O)(=O)N3CC(c4ccccc4)CC3=O)c2)s1` (stereo unspecified), for which the AC50 is inactive: > 30 µM. As for `CC1(C)CC(=O)C(C(c2cccnc2)C2C(=O)CC(C)(C)CC2=O)C(=O)C1`, the AC50 was inactive: > 30 µM. The value for `CC(=O)c1sc(NC(=O)CN2C(=O)C3CCCCC3C2=O)nc1-c1ccccc1` (stereo unspecified) was inactive: > 30 µM; that for `CCOc1ccc2nnc(-c3ccc(Br)cc3)n2n1` was inactive: > 30 µM. As for `Cc1ccc(-c2c3c(nc4sc(C(N)=O)c(N)c24)CCC3)cc1`, the AC50 is inactive: > 30 µM. Turning to `Cc1ccc(S(=O)(=O)N(CC(O)CN2CCCCC2)c2ccccc2)cc1` (stereo unspecified), the AC50 is inactive: > 30 µM. Turning to `CC(C)CC(=O)NC(=S)Nc1sc2c(c1C(N)=O)CCC2`, the AC50 is inactive: > 30 µM. The figure for `Cc1cccc(N2CC(C(=O)Nc3nccs3)CC2=O)c1C` (stereo unspecified) is inactive: > 30 µM; for `CCCC(=O)Nc1ccc2c(c1)C(=O)NC2=O` it is inactive: > 30 µM.

Regarding `CCn1c2ccc(Cl)cc2c2nc3ccccc3nc21`, the AC50 was inactive: > 30 µM.
